Experimental data as given in article PMC12979246.
Results are given in words; binding and its absence hold for the method and conditions named. Some binding calls cover weakened binding; strength is not graded here. Tags and fused reporters may be left off the sequences shown.

Sequences of proteins named here, by UniProt entry; tags and fusion partners are left off.
UniProt P67775: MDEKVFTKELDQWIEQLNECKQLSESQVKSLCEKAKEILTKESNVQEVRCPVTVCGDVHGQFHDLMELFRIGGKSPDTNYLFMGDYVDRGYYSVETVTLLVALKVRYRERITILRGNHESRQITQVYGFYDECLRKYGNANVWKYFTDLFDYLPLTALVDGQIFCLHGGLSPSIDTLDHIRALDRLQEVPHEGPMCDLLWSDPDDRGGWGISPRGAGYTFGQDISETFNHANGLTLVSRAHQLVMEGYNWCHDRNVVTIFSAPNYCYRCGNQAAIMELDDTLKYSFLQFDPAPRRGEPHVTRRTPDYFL

Target: Flag-PPP2CA (human) (UniProt P67775)
Assay: co-purification (affinity, gel filtration, ion exchange); Flag-PPP2CA, His-PPP2R1A and HA-PPP2R3A co-expressed in Sf9; lysate on M2 anti-Flag agarose 2 h at 4°C, Flag peptide elution, Superdex 200 26/60 in 20 mM Tris-HCl pH 8.0, 100 mM KCl, 10% glycerol, then Mono Q with a KCl gradient; silver stain

binding: binds
B1: HA-PPP2R3A (protein, UniProt Q06190 1-1150)
chain: MAATYRLVVSTVNHYSSVVIDRRFEQAIHYCTGTCHTFTHGIDCIVVHHSVCADLLHIPVSQFKDADLNSMFLPHENGLSSAEGDYPQQAFTGIPRVKRGSTFQNTYNLKDIAGEAISFASGKIKEFSFEKLKNSNHAAYRKGRKVKSDSFNRRSVDLDLLCGHYNNDGNAPSFGLLRSSSVEEKPLSHRNSLDTNLTSMFLQNFSEEDLVTQILEKHKIDNFSSGTDIKMCLDILLKCSEDLKKCTDIIKQCIKKKSGSSISEGSGNDTISSSETVYMNVMTRLASYLKKLPFEFMQSGNNEALDLTELISNMPSLQLTPFSPVFGTEQPPKYEDVVQLSASDSGRFQTIELQNDKPNSRKMDTVQSIPNNSTNSLYNLEVNDPRTLKAVQVQSQSLTMNPLENVSSDDLMETLYIEEESDGKKALDKGQKTENGPSHELLKVNEHRAEFPEHATHLKKCPTPMQNEIGKIFEKSFVNLPKEDCKSKVSKFEEGDQRDFTNSSSQEEIDKLLMDLESFSQKMETSLREPLAKGKNSNFLNSHSQLTGQTLVDLEPKSKVSSPIEKVSPSCLTRIIETNGHKIEEEDRALLLRILESIEDFAQELVECKSSRGSLSQEKEMMQILQETLTTSSQANLSVCRSPVGDKAKDTTSAVLIQQTPEVIKIQNKPEKKPGTPLPPPATSPSSPRPLSPVPHVNNVVNAPLSINIPRFYFPEGLPDTCSNHEQTLSRIETAFMDIEEQKADIYEMGKIAKVCGCPLYWKAPMFRAAGGEKTGFVTAQSFIAMWRKLLNNHHDDASKFICLLAKPNCSSLEQEDFIPLLQDVVDTHPGLTFLKDAPEFHSRYITTVIQRIFYTVNRSWSGKITSTEIRKSNFLQTLALLEEEEDINQITDYFSYEHFYVIYCKFWELDTDHDLYISQADLSRYNDQASSSRIIERIFSGAVTRGKTIQKEGRMSYADFVWFLISEEDKRNPTSIEYWFRCMDVDGDGVLSMYELEYFYEEQCERMEAMGIEPLPFHDLLCQMLDLVKPAVDGKITLRDLKRCRMAHIFYDTFFNLEKYLDHEQRDPFAVQKDVENDGPEPSDWDRFAAEEYETLVAEESAQAQFQEGFEDYETDEPASPSEFGNKSNKILSASLPEKCGKLQSVDEE
